Drawing on patent publication US20170157250A1, this text covers binding for six molecules.

By UniProt entry, the sequences of proteins in these tests, tags left out. Where a name states a change or a piece, a line headed by the entry shows the natural chain unless it says otherwise. Residues count along the entry.
UniProt Q12866, residues 21-999: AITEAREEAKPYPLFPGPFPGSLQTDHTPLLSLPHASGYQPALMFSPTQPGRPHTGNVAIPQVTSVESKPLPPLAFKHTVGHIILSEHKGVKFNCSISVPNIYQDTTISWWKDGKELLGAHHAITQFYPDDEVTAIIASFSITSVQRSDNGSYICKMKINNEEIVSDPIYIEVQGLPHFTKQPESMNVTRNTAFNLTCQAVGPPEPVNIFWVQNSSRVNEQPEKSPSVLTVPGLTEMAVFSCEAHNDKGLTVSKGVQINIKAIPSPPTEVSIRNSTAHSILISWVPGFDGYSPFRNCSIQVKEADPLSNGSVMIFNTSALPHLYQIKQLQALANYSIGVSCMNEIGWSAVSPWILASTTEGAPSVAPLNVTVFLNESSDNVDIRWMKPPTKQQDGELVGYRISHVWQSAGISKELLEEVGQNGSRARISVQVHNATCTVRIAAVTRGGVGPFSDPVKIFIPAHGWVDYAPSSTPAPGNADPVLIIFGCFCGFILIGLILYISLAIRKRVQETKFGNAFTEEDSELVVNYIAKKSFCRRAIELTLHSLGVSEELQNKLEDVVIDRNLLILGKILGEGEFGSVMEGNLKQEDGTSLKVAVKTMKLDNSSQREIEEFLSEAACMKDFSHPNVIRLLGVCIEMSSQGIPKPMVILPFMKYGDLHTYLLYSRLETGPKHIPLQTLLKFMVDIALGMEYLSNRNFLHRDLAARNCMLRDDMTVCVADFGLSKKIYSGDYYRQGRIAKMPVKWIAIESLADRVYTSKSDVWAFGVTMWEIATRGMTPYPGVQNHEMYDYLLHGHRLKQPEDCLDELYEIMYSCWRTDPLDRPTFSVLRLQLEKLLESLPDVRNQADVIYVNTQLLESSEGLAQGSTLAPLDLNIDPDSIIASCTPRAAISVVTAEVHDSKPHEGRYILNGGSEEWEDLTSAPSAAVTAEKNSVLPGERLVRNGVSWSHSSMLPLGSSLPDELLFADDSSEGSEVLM
UniProt Q06418, residues 41-890: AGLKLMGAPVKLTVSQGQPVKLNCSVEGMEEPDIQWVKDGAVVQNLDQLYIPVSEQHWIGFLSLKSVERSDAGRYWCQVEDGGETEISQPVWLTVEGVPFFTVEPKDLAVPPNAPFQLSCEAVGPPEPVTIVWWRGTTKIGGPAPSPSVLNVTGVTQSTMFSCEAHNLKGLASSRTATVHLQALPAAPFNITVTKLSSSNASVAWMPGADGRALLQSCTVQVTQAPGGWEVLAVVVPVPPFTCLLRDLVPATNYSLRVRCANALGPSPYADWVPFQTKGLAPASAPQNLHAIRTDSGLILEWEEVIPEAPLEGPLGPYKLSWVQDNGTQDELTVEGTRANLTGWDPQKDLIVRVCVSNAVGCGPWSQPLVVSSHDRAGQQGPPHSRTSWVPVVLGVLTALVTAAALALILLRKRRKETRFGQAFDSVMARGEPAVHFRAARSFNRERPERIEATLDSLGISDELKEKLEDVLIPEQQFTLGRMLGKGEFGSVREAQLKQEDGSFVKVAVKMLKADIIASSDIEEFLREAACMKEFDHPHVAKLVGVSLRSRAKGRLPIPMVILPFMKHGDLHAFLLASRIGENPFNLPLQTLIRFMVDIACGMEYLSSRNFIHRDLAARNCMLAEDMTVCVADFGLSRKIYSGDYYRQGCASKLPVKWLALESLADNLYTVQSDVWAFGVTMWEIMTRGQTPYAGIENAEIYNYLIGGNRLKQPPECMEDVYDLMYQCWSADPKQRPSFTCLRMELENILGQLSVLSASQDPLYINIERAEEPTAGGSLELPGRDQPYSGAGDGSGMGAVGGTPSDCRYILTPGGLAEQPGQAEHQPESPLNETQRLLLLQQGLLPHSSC
UniProt P30530: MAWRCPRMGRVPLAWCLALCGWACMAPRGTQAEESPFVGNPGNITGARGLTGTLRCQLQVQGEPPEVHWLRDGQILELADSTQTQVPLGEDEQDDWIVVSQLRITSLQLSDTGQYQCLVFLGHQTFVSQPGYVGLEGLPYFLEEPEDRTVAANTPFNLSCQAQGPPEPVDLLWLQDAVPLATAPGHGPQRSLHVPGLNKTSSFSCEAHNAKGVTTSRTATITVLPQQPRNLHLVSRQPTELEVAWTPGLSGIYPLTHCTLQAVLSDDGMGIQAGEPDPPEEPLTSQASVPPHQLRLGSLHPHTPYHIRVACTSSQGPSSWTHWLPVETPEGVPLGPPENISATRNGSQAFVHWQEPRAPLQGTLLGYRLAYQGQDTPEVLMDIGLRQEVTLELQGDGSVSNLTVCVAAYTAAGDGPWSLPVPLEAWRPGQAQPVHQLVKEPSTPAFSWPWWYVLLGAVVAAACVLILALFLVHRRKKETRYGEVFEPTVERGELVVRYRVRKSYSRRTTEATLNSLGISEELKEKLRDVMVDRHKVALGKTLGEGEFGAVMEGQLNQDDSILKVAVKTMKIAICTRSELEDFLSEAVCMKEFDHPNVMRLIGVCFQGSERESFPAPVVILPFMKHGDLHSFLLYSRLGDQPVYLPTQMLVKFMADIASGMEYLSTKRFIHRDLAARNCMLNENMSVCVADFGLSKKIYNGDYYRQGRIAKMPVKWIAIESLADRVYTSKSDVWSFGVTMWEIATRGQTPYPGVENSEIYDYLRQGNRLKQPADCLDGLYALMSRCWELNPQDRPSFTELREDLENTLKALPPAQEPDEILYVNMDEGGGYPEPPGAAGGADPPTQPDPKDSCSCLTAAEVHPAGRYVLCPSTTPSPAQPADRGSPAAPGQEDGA

No constants are given. Whether binding was seen depends on the method and setting.

For test [1], the target named is human MER (human) (UniProt Q12866). Description: flow cytometry, HEK-293F cells transfected with full length human MER, 4-fold dilutions of antibody, PE-anti-human IgG F(ab')2. On the technique in general: Flow cytometry measures light scatter and fluorescence of single cells or particles in a stream.
In test [2] the target is human TYRO3 (human) (UniProt Q06418). Description: flow cytometry, HEK-293F cells transfected with full length human TYRO3, 4-fold dilutions of antibody, PE-anti-human IgG F(ab')2.
Test [3] deals with Homo sapiens AXL-Mus musculus FN2 domain (p33-AXL-mFN2) (human-mouse chimera) (UniProt P30530). The experiment in a line: flow cytometry, HEK293F cells expressing the chimera.
Test [4] has the same target. Description: flow cytometry, 1 µg/mL antibody, HEK293F cells expressing hsAxl-mmFN2 (human AXL with the mouse FN2 domain), PE-anti-human IgG.

B1: IgG1-AXL-183-N52Q (antibody, V domains shown)
VH: QVQLQQWGAGLLKPSETLSLTCAVYGGSFSGYYWSWIRQPPGKGLEWIGEIQQSGSTNYNPSLKSRVTISVDTSKNQFSLKLSSVTAADTSVYYCASGNWDHFFDYWGQGTLVTVSS
VL: DIQMTQSPSSVSASVGDRVTITCRASQGISSWLAWYQHKPGKAPKLLIYATSSLQSGVTSRFSGSGSGTDFTLTISSLQPEDFATYYCQQAKSFPWTFGQGTKVEIK
Take B1: the binding result in test [1] and in test [2] was “no binding (tested: 10 µg/mL)” each time.

B2: IgG1-AXL-733 (antibody, V domains shown)
VH: QVQLVESGGGVVQPGRSLRLSCAASGFSFSTYAMHWVRQAPGKGLEWVAVISYDGDNKYSADSVKGRFTISRDNSKNTLYLQMNSLRAEDTAVYYCARGRKLGIDAFDIWGQGTMVTVSS
VL: AIQLTQSPSSLSASVGDRVTITCRASQGISSALAWYQQKPGKAPKLLIYDASSLESGVPSRFSGSGSGTDFTLTISGLQPEDFATYYCQQFNSYPFTFGPGTKVDIK
On to B2, for which the binding result in test [1] and in test [2] was “no binding (tested: 10 µg/mL)” in each case.

B3: IgG1-AXL-726 (antibody, V domains shown)
VH: QVQLQQWGAGLLKPSETLSLTCAIDGGSFSGYYWSWIRQPPGKGLEWIGEISHSGRTNYNPSLKSRVTISIDTSKNQFSLKLSSVAAADTAVYYCARFITMIRGAIITHFDYWGQGALVTVSS
VL: DIQMTQSPSSLSASVGDRVTITCRASQGISSWLAWYQQKPEKAPKSLIYAASSLQSGVPSRFSGSGSGTDFTLTISSLQPEDFATYYCQQYHSYPYTFGQGTKLEIK
On to B3, for which the binding result in test [3] and in test [4] was “no binding (tested: 1 µg/mL)” each time.

B4: IgG1-AXL-511 (antibody, V domains shown)
VH: EVQLLESGGGLVQPGGSLRLSCAASGFTFSSYAMNWVRQAPGKGLEWVSGISGSGGHTYHADSVKGRFTISRDNSKNTLYLQMNSLRAEDTAVYYCAKDRYDILTGYYNLLDYWGQGTLVTVSS
VL: DIQMTQSPSSLSASVGDRVTITCRASQGISSWLAWYQQKPEEAPKSLIYAASSLQSGVPSRFSGSGSGTDFTLTISSLQPEDFATYYCQQYNSYPLTFGGGAKVEIK
For the molecule B4, the binding entry in test [1] and in test [2] was “no binding (tested: 10 µg/mL)” each time.

B5: IgG1-AXL-726-M101L (antibody, V domains shown)
VH: QVQLQQWGAGLLKPSETLSLTCAIDGGSFSGYYWSWIRQPPGKGLEWIGEISHSGRTNYNPSLKSRVTISIDTSKNQFSLKLSSVAAADTAVYYCARFITLIRGAIITHFDYWGQGALVTVSS
VL: DIQMTQSPSSLSASVGDRVTITCRASQGISSWLAWYQQKPEKAPKSLIYAASSLQSGVPSRFSGSGSGTDFTLTISSLQPEDFATYYCQQYHSYPYTFGQGTKLEIK
As for B5, the binding result in test [1] and in test [2] was “no binding (tested: 10 µg/mL)” throughout.

B6: IgG1-AXL-148 (antibody, V domains shown)
VH: EVQLLESGGGLVQPGGSLRLSCAASGFTFSSYAMTWVRQAPGKGLEWVSAISISGGSTFYADSVKGRFTISRDNSKNTLYLQMNSLRAEDTAVYYCRGYSGYVYDAFDFWGQGTMVTVSS
VL: DIQMTQSPSSLSASVGDRVTITCRASQGISNWLAWYQQKPEKAPKSLIYAASSLQSGVPSRFSGSGSGTDFTLTISSLQPEDFATYYCQQYNSYPLTFGGGTKVEIK
Turning to B6, the binding result in test [1] and in test [2] was “no binding (tested: 10 µg/mL)” each time.
